Some entries share one result that the patent states for a list of compounds.
Assays:
[1] = target: T1, human P2X7 receptor (Homo sapiens, UniProt Q99572); assay: Fluorescent Imaging Plate Reader (FLIPR) Ca Assay; type: cell-based; details: HEK293 cells expressing human recombinant P2X7 receptors; BzATP 60 μM
T1 construct: expressed in transfected cells; host or cells: HEK293
T1 sequence (Q99572 1-595): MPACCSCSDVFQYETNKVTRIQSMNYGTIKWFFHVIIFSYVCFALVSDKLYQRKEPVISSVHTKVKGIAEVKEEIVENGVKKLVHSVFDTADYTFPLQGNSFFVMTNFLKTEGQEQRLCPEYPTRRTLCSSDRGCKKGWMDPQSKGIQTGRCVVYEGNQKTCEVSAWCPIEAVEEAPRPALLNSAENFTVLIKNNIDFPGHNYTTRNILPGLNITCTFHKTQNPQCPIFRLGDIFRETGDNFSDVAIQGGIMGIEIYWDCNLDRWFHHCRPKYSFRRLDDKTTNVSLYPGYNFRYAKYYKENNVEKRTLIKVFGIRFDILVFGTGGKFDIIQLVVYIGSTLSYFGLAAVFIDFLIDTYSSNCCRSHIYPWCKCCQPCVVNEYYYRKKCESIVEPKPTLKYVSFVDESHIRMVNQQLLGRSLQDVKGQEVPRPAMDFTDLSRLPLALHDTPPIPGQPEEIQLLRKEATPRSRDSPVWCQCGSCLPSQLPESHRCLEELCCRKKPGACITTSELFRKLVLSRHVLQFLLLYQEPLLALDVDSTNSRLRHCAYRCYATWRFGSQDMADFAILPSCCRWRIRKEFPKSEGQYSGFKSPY

[2] = target: T1, human P2X7 receptor; assay: Ethidium Accumulation Assay; type: cell-based; details: HEK293 cells expressing human recombinant P2X7 receptors; 1 mM ATP; ethidium 100 μM
Method: Studies were performed using NaCl assay buffer of the following composition (in mM): 140 mM NaCl, HEPES 10, N-methyl-D-glucamine 5, KCl 5.6, D-glucose 10, CaCl2 0.5 (pH 7.4). HEK293 cells, expressing human recombinant P2X7 receptors, were grown in poly-L-lysine pretreated 96 well plates for 18-24 h. […] The cells were washed twice with 350 μl of assay buffer before addition of 50 μl of antagonist. The cells were then incubated at room temperature (19-21° C.) for 30 min before addition of ATP and ethidium (100 μM final assay concentration). The ATP concentration was chosen to be close to the EC80 for the receptor type and was 1 mM for studies on the human P2X7 receptor. Incubations were continued for 8 or 16 min and were terminated by addition of 25 μl of 1.3M sucrose containing 5 mM of the P2X7 receptor antagonist reactive black 5 (Aldrich). Cellular accumulation of ethidium was determined by measuring fluorescence (excitation wavelength of 530 nm and emission wavelength of 620 nm) from below the plate with a Canberra Packard Fluorocount (Pangbourne, UK). Antagonist pIC50 values for blocking ATP responses were determined using iterative curve fitting techniques.

SMILES	pIC50 in the FLIPR Ca Assay (antagonist, blocking BzATP responses) [1]	pIC50 in the Ethidium Accumulation Assay (antagonist, blocking ATP responses) [2]
CCN1C(=O)OC[C@H]1C(=O)NCc1ccc(F)cc1Cl [Example E1, N-[(2-chloro-4-fluorophenyl)methyl]-3-ethyl-2-oxo-1,3-oxazolidine-4-carboxamide]	> 4.7	> 5.5
CCN1C(=O)OCC1C(=O)NCc1ccc(F)cc1Cl (stereo not shown) [Example E2, N-[(2-chloro-4-fluorophenyl)methyl]-3-ethyl-2-oxo-1,3-oxazolidine-4-carboxamide]	> 4.7	
CN1C(=O)OCC1C(=O)NCc1cccc(C(F)(F)F)c1Cl (stereo not shown) [Example E3, N-{[2-chloro-3-(trifluoromethyl)phenyl]methyl}-3-methyl-2-oxo-1,3-oxazolidine-4-carboxamide]	> 4.7	> 5.5
CN1C(=O)OC[C@H]1C(=O)NCc1cccc(C(F)(F)F)c1Cl [Example E4, N-{[2-chloro-3-(trifluoromethyl)phenyl]methyl}-3-methyl-2-oxo-1,3-oxazolidine-4-carboxamide]	> 4.7	> 5.5
O=C(NCc1cccc(C(F)(F)F)c1Cl)C1COCC(=O)N1Cc1ccccc1 (stereo not shown) [Example E5, N-{[2-chloro-3-(trifluoromethyl)phenyl]methyl}-5-oxo-4-(phenylmethyl)-3-morpholinecarboxamide]	> 4.7	
O=C(NCc1ccc(Cl)cc1Cl)C1COCC(=O)N1Cc1ccccc1 (stereo not shown) [Example E7]	> 4.7	
O=C(NCc1cccc2ccccc12)C1COCC(=O)N1Cc1ccccc1 (stereo not shown) [Example E8]	> 4.7	
O=C(NCc1ccc(F)cc1Cl)C1COCC(=O)N1Cc1ccccc1 (stereo not shown) [Example E9]	> 4.7	
CN1C(=O)COCC1C(=O)NCc1cccc(C(F)(F)F)c1Cl (stereo not shown) [Example E10, N-{[2-chloro-3-(trifluoromethyl)phenyl]methyl}-4-methyl-5-oxo-3-morpholinecarboxamide]	> 4.7	> 5.5

Source: US20100144727A1, “Oxazolidine and Morpholine Carboxamide Derivatives as P2X7 Modulators” (priority 2007, published 2010)
